Publication PMC5147770
These are yes or no findings as the source states them, for the method shown. Some results given as binding are weak or reduced against the parent protein; the word gives no strength.

T1: CBP80 (cap-binding protein 80, subunit of the cap-binding complex) (Arabidopsis thaliana) (UniProt Q9SIU2)
T1 sequence: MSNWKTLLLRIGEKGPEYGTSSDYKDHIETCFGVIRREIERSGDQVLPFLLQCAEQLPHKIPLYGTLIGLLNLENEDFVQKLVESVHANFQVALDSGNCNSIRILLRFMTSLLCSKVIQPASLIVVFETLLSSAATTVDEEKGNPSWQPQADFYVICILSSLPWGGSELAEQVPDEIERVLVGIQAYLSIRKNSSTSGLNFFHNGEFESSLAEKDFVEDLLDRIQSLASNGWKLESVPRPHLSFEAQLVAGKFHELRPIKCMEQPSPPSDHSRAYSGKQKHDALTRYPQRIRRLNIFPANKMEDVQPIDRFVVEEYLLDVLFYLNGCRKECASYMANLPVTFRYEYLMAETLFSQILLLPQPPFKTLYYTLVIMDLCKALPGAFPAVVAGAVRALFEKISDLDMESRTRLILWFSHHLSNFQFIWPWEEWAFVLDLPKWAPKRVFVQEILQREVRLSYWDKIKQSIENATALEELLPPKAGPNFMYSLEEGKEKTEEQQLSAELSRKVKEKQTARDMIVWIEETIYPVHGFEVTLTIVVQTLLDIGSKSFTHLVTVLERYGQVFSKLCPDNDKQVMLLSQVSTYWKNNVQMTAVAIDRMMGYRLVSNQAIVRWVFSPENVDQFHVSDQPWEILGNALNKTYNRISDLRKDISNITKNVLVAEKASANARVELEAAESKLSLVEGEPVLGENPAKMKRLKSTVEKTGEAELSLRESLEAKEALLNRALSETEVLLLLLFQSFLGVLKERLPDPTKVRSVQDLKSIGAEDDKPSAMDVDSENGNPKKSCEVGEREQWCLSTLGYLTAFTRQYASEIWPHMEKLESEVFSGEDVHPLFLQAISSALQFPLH

B1: cap binding protein 20 (CBP20) (protein, UniProt Q9XFD1 1-257)
chain: MASLFKEQAKLSAYRDRRFSGTQEEFDEALRASTTVYIGNVSFYTTEEQLYELFSRAGEIKKIIMGLDKNTKTPCGFCFVLFYSREDTEDAVKYISGTILDDRPIRVDFDWGFQEGRQWGRGRSGGQVRDEYRTDYDPARGGYGKLVQKELEAQRQLVDYGTGSLGAYPQAAPTNYGNGRRGGGNYGQGGQNRHGRGDYHRKRQRDDDRYGRDNSRRNTDHESRRDTDSDMRPEKNPRFRESGDSDDDGEDDRKRRS
B2: CBP20^S245A (constitutive de-phosphorylation mimic form of CBP20) (protein, UniProt Q9XFD1 1-257)
chain: MASLFKEQAKLSAYRDRRFSGTQEEFDEALRASTTVYIGNVSFYTTEEQLYELFSRAGEIKKIIMGLDKNTKTPCGFCFVLFYSREDTEDAVKYISGTILDDRPIRVDFDWGFQEGRQWGRGRSGGQVRDEYRTDYDPARGGYGKLVQKELEAQRQLVDYGTGSLGAYPQAAPTNYGNGRRGGGNYGQGGQNRHGRGDYHRKRQRDDDRYGRDNSRRNTDHESRRDTDSDMRPEKNPRFRESGDADDDGEDDRKRRS
B3: CBP20^S245D (constitutive phosphorylation mimic form of CBP20) (protein, UniProt Q9XFD1 1-257)
chain: MASLFKEQAKLSAYRDRRFSGTQEEFDEALRASTTVYIGNVSFYTTEEQLYELFSRAGEIKKIIMGLDKNTKTPCGFCFVLFYSREDTEDAVKYISGTILDDRPIRVDFDWGFQEGRQWGRGRSGGQVRDEYRTDYDPARGGYGKLVQKELEAQRQLVDYGTGSLGAYPQAAPTNYGNGRRGGGNYGQGGQNRHGRGDYHRKRQRDDDRYGRDNSRRNTDHESRRDTDSDMRPEKNPRFRESGDDDDDGEDDRKRRS
B4: CBP20^S245E (constitutive phosphorylation mimic form of CBP20) (protein, UniProt Q9XFD1 1-257)
chain: MASLFKEQAKLSAYRDRRFSGTQEEFDEALRASTTVYIGNVSFYTTEEQLYELFSRAGEIKKIIMGLDKNTKTPCGFCFVLFYSREDTEDAVKYISGTILDDRPIRVDFDWGFQEGRQWGRGRSGGQVRDEYRTDYDPARGGYGKLVQKELEAQRQLVDYGTGSLGAYPQAAPTNYGNGRRGGGNYGQGGQNRHGRGDYHRKRQRDDDRYGRDNSRRNTDHESRRDTDSDMRPEKNPRFRESGDEDDDGEDDRKRRS

Biological target: T1, CBP80 (cap-binding protein 80, subunit of the cap-binding complex) (Arabidopsis thaliana)
Test: two-hybrid; ProQuest Two-Hybrid System (Invitrogen), yeast strain Mav203; pBD-CBP80 co-transformed with pAD-CBP20 or its S245 mutants; growth on SD/-Trp-Leu-His with 10mM 3AT indicates interaction

binding, binds:
B1
B2
B3
B4
